In paper PMC9681780:
Results are given in words; binding and its absence hold for the method and conditions named. Binding seen in cells or lysates may run through a third protein. A yes stands for co-enrichment or nearness to the bait. Other partners may have been found. Where a sequence is shown, tags or fusion partners need not be part of it.

Target: T1, PRSS22 wild type with C-terminal Flag tag (pcDNA3.1-PRSS22) (human) (UniProt Q9GZN4)
T1 sequence: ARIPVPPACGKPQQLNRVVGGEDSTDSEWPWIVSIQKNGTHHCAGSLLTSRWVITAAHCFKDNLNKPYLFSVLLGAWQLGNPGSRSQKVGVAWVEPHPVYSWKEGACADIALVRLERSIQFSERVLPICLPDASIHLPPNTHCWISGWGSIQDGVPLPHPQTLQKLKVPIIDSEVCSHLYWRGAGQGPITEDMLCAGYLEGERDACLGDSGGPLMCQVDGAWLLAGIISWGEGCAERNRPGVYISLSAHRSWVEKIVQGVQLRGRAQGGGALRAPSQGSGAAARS
Experiment: affinity purification with mass spectrometry; 1000 μg total protein of MDA-MB-231 cells transfected with Flag-tagged PRSS22 plasmids, incubated with Flag Tag Immunomagnetic Beads at 4 °C overnight; washed with TBST; SDS-PAGE, silver staining, differential bands analysed by mass spectrometry

B1: ANXA1 (Annexin A1) (protein, UniProt P04083 1-346)
chain: MAMVSEFLKQAWFIENEEQEYVQTVKSSKGGPGSAVSPYPTFNPSSDVAALHKAIMVKGVDEATIIDILTKRNNAQRQQIKAAYLQETGKPLDETLKKALTGHLEEVVLALLKTPAQFDADELRAAMKGLGTDEDTLIEILASRTNKEIRDINRVYREELKRDLAKDITSDTSGDFRNALLSLAKGDRSEDFGVNEDLADSDARALYEAGERRKGTDVNVFNTILTTRSYPQLRRVFQKYTKYSKHDMNKVLDLELKGDIEKCLTAIVKCATSKPAFFAEKLHQAMKGVGTRHKALIRIMVSRSEIDMNDIKAFYQKMYGISLCQAILDETKGDYEKILVALCGGN
binding: binds
